Protein sequences, listed by entry. Tags and fused reporters are not part of them. Lines headed by an entry give the natural chain unless they say otherwise; changes in a name come on top.
UniProt Q9UBK9, whole entry: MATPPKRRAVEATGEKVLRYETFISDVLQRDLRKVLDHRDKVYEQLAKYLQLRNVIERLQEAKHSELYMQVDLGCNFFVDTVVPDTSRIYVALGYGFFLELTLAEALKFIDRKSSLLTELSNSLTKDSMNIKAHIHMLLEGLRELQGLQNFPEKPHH
UniProt P52747: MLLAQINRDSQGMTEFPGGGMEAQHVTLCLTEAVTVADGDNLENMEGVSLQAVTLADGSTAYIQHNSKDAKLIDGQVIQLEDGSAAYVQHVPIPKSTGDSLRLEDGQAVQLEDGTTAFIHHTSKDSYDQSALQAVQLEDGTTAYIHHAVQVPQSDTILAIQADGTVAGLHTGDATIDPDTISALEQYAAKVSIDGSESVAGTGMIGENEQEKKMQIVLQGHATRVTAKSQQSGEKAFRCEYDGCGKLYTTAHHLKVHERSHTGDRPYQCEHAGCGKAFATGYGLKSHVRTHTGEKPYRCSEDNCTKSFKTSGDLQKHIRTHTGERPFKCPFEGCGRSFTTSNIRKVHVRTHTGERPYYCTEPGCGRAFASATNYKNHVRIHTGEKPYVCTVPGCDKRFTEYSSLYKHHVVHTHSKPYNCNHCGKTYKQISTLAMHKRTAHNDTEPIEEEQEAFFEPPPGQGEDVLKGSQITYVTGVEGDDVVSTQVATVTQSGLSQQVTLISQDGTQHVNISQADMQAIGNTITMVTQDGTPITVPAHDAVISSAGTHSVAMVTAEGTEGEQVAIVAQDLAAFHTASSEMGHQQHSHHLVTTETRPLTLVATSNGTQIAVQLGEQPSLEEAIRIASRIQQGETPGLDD
UniProt Q8NBZ7: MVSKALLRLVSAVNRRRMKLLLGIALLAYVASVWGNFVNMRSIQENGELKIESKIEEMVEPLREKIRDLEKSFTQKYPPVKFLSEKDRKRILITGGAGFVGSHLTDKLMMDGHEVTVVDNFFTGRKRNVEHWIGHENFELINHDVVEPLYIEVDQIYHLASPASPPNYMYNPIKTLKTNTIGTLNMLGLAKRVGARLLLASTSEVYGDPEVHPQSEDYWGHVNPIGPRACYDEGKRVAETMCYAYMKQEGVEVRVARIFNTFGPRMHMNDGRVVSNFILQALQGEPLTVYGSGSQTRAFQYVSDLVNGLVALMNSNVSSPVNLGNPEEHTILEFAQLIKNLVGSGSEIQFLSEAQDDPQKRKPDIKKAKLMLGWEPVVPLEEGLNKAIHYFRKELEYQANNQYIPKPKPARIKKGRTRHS
UniProt P63027, whole entry: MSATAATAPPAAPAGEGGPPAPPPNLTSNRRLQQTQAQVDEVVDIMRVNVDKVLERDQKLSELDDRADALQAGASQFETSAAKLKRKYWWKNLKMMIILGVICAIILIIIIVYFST
UniProt Q9ULJ6: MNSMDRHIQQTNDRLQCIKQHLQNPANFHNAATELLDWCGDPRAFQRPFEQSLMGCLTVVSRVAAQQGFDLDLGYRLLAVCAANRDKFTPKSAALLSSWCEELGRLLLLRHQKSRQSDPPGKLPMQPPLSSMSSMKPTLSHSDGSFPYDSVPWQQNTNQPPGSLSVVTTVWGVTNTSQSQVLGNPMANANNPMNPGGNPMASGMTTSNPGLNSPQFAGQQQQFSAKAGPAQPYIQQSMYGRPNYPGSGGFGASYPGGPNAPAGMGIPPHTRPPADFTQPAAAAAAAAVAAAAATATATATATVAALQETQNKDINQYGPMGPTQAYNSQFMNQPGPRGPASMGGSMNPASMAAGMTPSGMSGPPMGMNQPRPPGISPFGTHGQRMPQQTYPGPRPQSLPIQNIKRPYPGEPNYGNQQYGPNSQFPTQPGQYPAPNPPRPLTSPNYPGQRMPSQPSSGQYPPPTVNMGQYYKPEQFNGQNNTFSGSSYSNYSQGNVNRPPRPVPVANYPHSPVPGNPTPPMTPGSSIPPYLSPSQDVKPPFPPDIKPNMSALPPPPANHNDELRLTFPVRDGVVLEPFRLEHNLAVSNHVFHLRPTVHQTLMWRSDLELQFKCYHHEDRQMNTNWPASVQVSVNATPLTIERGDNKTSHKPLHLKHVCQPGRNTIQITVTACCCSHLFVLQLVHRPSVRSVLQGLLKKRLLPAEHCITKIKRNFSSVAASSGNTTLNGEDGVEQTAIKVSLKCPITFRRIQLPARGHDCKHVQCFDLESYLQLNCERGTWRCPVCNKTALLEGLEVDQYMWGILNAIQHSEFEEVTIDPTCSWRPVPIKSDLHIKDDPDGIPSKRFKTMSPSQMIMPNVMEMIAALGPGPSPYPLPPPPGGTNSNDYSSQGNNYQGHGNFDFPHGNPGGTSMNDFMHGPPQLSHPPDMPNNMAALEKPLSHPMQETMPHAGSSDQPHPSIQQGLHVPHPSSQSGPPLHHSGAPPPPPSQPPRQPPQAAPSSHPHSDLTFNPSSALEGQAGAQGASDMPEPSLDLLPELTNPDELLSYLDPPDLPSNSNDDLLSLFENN
UniProt P63104: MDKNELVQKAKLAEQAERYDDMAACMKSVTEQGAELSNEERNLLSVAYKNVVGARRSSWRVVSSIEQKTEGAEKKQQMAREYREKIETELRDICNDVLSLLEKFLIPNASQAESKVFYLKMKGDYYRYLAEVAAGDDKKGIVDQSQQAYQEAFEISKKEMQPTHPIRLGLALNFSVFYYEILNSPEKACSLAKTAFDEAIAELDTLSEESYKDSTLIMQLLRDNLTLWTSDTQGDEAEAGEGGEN
UniProt O75152: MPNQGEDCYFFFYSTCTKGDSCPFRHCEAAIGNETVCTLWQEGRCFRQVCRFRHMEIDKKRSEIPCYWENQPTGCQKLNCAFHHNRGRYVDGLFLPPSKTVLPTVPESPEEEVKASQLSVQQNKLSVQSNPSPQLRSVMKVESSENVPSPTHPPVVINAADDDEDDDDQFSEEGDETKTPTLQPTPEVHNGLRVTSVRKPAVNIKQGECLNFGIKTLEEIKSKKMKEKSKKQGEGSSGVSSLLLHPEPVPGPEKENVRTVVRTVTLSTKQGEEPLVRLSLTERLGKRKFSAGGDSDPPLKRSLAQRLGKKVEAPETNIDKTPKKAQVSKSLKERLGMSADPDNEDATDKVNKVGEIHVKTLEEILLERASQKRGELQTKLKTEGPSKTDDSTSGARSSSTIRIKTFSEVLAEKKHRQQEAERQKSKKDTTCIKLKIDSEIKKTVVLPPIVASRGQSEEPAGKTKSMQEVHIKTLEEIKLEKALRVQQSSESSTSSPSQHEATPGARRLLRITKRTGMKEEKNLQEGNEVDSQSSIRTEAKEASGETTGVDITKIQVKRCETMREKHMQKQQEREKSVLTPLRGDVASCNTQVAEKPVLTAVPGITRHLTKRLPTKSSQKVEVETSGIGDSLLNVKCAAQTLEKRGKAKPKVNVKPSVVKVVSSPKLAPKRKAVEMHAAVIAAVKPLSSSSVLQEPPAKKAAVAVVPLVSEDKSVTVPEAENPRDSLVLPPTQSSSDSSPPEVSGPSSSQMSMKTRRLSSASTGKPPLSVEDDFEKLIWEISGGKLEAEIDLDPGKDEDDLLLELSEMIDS
UniProt Q9NUD5: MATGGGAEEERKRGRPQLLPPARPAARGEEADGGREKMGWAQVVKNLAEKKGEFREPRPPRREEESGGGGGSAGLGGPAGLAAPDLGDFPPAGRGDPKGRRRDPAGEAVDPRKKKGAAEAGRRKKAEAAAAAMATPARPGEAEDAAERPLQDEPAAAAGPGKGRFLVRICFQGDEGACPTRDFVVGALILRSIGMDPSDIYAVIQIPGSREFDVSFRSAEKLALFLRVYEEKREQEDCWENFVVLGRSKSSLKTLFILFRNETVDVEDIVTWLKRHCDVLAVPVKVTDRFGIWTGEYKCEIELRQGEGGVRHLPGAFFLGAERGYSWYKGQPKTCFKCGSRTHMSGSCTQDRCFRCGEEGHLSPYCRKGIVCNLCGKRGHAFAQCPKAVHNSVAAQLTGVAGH
UniProt P49754: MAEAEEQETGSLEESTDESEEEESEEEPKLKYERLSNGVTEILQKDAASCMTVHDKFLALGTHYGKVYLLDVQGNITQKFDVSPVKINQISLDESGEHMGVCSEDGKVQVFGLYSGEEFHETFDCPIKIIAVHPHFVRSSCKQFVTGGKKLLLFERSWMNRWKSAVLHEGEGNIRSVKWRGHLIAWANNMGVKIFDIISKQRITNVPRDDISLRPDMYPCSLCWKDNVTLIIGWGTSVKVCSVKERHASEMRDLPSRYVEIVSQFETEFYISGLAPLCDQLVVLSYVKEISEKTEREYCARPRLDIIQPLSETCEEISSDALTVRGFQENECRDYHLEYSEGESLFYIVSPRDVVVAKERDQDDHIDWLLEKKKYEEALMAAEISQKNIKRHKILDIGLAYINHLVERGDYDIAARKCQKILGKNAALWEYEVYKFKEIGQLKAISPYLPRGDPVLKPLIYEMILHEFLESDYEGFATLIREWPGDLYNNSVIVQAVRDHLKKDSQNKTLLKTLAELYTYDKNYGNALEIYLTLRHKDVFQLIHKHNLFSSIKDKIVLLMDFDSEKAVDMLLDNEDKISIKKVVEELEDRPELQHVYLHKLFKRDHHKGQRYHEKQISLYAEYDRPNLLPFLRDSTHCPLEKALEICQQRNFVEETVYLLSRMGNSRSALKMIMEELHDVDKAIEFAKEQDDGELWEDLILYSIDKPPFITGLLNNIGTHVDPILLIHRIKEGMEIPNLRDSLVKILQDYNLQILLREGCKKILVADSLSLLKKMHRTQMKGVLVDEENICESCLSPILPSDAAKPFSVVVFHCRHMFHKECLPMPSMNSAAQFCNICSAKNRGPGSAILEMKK
UniProt Q9UIA9: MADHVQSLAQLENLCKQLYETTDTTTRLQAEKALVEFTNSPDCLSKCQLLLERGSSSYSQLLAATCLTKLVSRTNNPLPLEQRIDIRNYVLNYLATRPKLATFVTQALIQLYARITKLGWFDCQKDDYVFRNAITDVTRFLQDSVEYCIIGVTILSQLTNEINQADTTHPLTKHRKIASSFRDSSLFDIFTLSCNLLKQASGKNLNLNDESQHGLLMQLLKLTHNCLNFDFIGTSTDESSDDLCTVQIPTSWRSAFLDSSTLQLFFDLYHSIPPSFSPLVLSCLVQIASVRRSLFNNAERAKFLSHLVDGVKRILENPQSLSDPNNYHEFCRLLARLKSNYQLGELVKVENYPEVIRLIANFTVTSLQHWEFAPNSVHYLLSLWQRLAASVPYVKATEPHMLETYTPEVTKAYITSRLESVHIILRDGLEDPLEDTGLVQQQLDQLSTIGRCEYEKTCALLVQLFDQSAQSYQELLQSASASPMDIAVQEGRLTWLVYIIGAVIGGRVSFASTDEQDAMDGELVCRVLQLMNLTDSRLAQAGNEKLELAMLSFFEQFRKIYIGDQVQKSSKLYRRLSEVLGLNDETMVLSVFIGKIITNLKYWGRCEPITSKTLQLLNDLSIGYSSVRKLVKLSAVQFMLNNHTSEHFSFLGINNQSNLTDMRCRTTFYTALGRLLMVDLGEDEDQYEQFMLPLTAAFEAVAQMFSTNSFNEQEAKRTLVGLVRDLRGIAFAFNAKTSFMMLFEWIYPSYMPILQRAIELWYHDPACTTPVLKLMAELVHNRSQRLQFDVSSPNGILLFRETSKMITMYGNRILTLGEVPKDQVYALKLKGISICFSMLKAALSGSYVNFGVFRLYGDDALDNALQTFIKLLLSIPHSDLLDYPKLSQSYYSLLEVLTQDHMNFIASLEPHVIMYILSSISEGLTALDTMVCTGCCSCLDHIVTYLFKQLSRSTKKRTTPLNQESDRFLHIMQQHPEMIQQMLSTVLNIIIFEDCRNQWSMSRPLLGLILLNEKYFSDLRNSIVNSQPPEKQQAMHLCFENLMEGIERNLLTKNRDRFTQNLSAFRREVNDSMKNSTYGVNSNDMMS
UniProt P62699: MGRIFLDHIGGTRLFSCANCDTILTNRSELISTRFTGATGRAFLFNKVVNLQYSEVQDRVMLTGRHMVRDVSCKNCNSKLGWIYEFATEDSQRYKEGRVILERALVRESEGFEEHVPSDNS
UniProt Q13426: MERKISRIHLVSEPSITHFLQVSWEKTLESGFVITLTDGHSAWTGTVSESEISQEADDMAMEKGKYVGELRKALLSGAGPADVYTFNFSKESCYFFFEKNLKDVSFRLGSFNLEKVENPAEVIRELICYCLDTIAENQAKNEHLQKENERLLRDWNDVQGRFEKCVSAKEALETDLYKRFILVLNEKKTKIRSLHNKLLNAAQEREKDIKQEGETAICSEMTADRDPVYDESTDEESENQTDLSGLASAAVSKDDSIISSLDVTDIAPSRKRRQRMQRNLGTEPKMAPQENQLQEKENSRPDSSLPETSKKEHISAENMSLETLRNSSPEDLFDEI
UniProt A8MPS7: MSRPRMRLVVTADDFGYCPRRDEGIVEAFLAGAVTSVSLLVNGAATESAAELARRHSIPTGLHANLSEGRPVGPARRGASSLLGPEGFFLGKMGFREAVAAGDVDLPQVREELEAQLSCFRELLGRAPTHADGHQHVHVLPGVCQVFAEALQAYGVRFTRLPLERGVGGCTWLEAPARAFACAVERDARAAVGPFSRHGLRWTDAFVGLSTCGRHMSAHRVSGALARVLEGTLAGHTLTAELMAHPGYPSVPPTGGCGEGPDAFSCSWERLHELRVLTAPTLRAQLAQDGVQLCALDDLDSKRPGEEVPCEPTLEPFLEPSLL

The list shows a part of the results.
Each target was assayed with COc1ccc(Cn2ccc3ccc(C(=O)NO)cc32)cc1 (assay: dose-dependent thermal stabilisation call (2D-TPP, DLPTP, 10% FDR) (binary (1 = stabilised)); higher = stabilised by the compound). Conditions: system: HL-60 intact cells; concentration range 0.04-10 µM.
In the case of WDR76 (UniProt Q9H967), the “dose-dependent thermal stabilisation call” value is reported as inactive: 0.
VPS52 (UniProt Q8N1B4) was tested, and the “dose-dependent thermal stabilisation call” value was inactive: 0.
In the case of WDSOF1 (UniProt Q9NV06), the “dose-dependent thermal stabilisation call” value is reported as inactive: 0.
For YTHDF1 (UniProt Q9BYJ9), the “dose-dependent thermal stabilisation call” value was inactive: 0.
UXT (UniProt Q9UBK9) was tested, and the “dose-dependent thermal stabilisation call” value was inactive: 0.
XK (UniProt P51811) was tested, and the “dose-dependent thermal stabilisation call” value was inactive: 0.
In the case of XPO6 (UniProt Q96QU8), the “dose-dependent thermal stabilisation call” value is reported as inactive: 0.
For VGLL4 (UniProt Q14135), the “dose-dependent thermal stabilisation call” value was inactive: 0.
ZFAND3 (UniProt Q9H8U3) was tested, and the “dose-dependent thermal stabilisation call” value was inactive: 0.
In the case of ZNF143 (UniProt P52747), the “dose-dependent thermal stabilisation call” value is reported as inactive: 0.
UTRN (UniProt P46939) was tested, and the “dose-dependent thermal stabilisation call” value was inactive: 0.
In the case of ZCRB1 (UniProt Q8TBF4), the “dose-dependent thermal stabilisation call” value is reported as inactive: 0.
With UXS1 (UniProt Q8NBZ7) the “dose-dependent thermal stabilisation call” value was inactive: 0.
With ZDHHC20 (UniProt Q5W0Z9) the “dose-dependent thermal stabilisation call” value was inactive: 0.
With VAMP2 (UniProt P63027) the “dose-dependent thermal stabilisation call” value was inactive: 0.
For VPS29 (UniProt Q9UBQ0), the “dose-dependent thermal stabilisation call” value was inactive: 0.
In the case of ZMIZ1 (UniProt Q9ULJ6), the “dose-dependent thermal stabilisation call” value is reported as inactive: 0.
YWHAZ (UniProt P63104) was tested, and the “dose-dependent thermal stabilisation call” value was inactive: 0.
ZC3H11A (UniProt O75152) was tested, and the “dose-dependent thermal stabilisation call” value was inactive: 0.
For WDR3 (UniProt Q9UNX4), the “dose-dependent thermal stabilisation call” value was inactive: 0.
In the case of XRCC3 (UniProt O43542), the “dose-dependent thermal stabilisation call” value is reported as inactive: 0.
With WDR12 (UniProt Q9GZL7) the “dose-dependent thermal stabilisation call” value was inactive: 0.
ZKSCAN4 (UniProt Q969J2) was tested, and the “dose-dependent thermal stabilisation call” value was inactive: 0.
With WDR79 (UniProt Q9BUR4) the “dose-dependent thermal stabilisation call” value was inactive: 0.
For WARS (UniProt P23381), the “dose-dependent thermal stabilisation call” value was inactive: 0.
In the case of WIPF1 (UniProt O43516), the “dose-dependent thermal stabilisation call” value is reported as inactive: 0.
In the case of ZCCHC3 (UniProt Q9NUD5), the “dose-dependent thermal stabilisation call” value is reported as inactive: 0.
For VPS41 (UniProt P49754), the “dose-dependent thermal stabilisation call” value was inactive: 0.
In the case of YARS2 (UniProt Q9Y2Z4), the “dose-dependent thermal stabilisation call” value is reported as inactive: 0.
With YEATS4 (UniProt O95619) the “dose-dependent thermal stabilisation call” value was inactive: 0.
In the case of ZFP91 (UniProt Q96JP5), the “dose-dependent thermal stabilisation call” value is reported as inactive: 0.
For XPO7 (UniProt Q9UIA9), the “dose-dependent thermal stabilisation call” value was inactive: 0.
For YPEL5 (UniProt P62699), the “dose-dependent thermal stabilisation call” value was inactive: 0.
In the case of ZC3H12D (UniProt A2A288), the “dose-dependent thermal stabilisation call” value is reported as inactive: 0.
For WASH1 (UniProt A8K0Z3), the “dose-dependent thermal stabilisation call” value was inactive: 0.
For XRCC4 (UniProt Q13426), the “dose-dependent thermal stabilisation call” value was inactive: 0.
In the case of YDJC (UniProt A8MPS7), the “dose-dependent thermal stabilisation call” value is reported as inactive: 0.

Source: the supplement of paper PMC7666118
